The list shows a part of the results.
What follows are compounds tested on T1, CTL2-GFP (C. trachomatis L2/434/Bu, GFP-expressing). Conditions: bulk GFP, single well; 28.5 h, 10 µM; inhibitor.
T1 construct: L2/434/Bu, GFP-expressing
Set-up: species or system HeLa; Intracellular C. trachomatis growth in HeLa cells, bulk GFP fluorescence relative to DMSO

Structure (SMILES)	% of control remaining [%]
CCCc1oc(C(=O)O)cc1CN1CCOCC1 [CBK267984C]	111.235
CC(Cc1ccccn1)NC(=O)Cc1ccc2c(c1)CCCO2 (stereo not shown) [CBK282115]	121.925
Cc1nc(C)c(C(=O)NC2CCCNC2=O)s1 (stereo not shown) [CBK281628]	130.541
COCCNC(=O)c1cnn2c(C)c(Cc3ccccc3C(F)(F)F)c(C)nc12 [CBK165210]	121.362
CCOC(=O)N1CCN(S(=O)(=O)c2coc(C)c2C(=O)OC)CC1 [CBK057079]	106.542
CC(=O)c1cnc2nc(-c3cccnc3)nn2c1C [CBK287859]	95.1374
CCn1cc(CN2CCCN(C(=O)c3ccc(Cl)cn3)CC2)cn1 [CBK304760]	125.211
CC(=O)Nc1ccc(S(=O)(=O)Nc2nc3ccccc3nc2Nc2ccc(C(=O)O)cc2)cc1 [CBK296079]	96.9707
O=C(OCc1ccc2sccc2c1)N1CCOCC1 [CBK200163]	103.092
O=C(O)c1cc(NS(=O)(=O)c2ccc3c(c2)OCCCO3)ccc1F [CBK296731]	144.197
CCOC(=O)N1CCN(S(=O)(=O)c2ccc3c(c2)n(C)c(=O)n3C)CC1 [CBK304620]	130.899
CC(C)n1nnnc1-c1ccccc1NS(=O)(=O)c1cn[nH]c1 [CBK305542]	111.515
COc1cccc(-c2ccc3ccc(N)nc3n2)c1 [CBK061640]	100
COc1ccc(C(NC(=O)C2CCN(CCOc3ccc(Br)cc3)CC2)c2ccco2)cc1 (stereo not shown) [CBK148311]	136.559
O=C(Nc1ccccn1)NC1CCS(=O)(=O)C1 (stereo not shown) [CBK021330]	151.993
O=C(Nc1cccnc1)c1cc(C(=O)c2ccc(Cl)cc2Cl)c[nH]1 [CBK107406]	79.0871
C[C@@H]1CN2CCCC2CN1CCc1ccccc1 (stereo partly shown) [CBK285424]	121.052
Cc1cc(NS(=O)(=O)c2ccc(-c3ccon3)s2)n(C)n1 [CBK067257]	233.037
Cc1ncc(CN2CCCC(O)(c3ccc(F)cc3)CC2)n1C (stereo not shown) [CBK284836]	111.376
CC1(C)C[C@H](NC(=O)c2cccs2)[C@@]2(CCC(=O)N3CCCC3)CC[C@](C)(O)C[C@@H]12 [CBK289042]	89.4355
Cc1cc(Cl)ccc1NC(=O)CCC(=O)N/N=C/c1cccnc1 [CBK261945]	90.6272
CC(C)(C)OCc1[nH]n(CCc2ccccc2)c(=O)c1Cc1c(Cl)cccc1Cl [CBK091452]	113.779

Reference: publication PMC12040169 (PLOS Biology, 2025)
